Laboratory results reported in article PMC3520893.
No constants are given. Whether binding was seen depends on the method and setting.

The chains behind the UniProt entries cited, without tags or fusion partners.
UniProt P0DMV8: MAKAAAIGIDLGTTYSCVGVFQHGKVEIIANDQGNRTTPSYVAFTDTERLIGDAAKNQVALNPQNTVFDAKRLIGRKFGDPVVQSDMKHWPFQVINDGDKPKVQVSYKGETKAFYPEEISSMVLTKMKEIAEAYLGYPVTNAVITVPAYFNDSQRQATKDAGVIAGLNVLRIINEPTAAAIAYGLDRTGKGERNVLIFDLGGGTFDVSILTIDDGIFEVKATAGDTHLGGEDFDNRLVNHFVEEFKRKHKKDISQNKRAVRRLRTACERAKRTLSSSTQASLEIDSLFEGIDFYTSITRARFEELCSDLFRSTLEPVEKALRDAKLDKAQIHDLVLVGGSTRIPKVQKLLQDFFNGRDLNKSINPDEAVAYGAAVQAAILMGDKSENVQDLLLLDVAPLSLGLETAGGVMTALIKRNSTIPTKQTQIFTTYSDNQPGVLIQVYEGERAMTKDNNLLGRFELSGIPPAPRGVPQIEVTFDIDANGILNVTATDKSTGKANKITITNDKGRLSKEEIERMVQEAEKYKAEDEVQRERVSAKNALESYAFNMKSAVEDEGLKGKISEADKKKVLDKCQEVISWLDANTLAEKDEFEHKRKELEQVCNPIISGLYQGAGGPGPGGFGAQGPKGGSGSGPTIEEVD
UniProt Q00987: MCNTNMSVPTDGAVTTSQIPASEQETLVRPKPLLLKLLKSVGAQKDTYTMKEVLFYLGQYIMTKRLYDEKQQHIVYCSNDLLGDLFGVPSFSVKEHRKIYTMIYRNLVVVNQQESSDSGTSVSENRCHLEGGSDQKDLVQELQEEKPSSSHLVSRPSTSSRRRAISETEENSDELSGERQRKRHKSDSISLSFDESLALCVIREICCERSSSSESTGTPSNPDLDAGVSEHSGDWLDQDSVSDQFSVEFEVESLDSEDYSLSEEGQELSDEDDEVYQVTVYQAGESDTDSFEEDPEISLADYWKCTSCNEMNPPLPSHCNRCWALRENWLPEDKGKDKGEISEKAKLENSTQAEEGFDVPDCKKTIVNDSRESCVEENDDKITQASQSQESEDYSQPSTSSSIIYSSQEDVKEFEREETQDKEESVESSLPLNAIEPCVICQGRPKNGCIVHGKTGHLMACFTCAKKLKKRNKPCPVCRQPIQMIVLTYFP

Target: heat shock protein 70 (HSP70/HSPA1-A) (UniProt P0DMV8)
Assay: ELISA; about 400 ng of purified p53, chaperone or BSA coated on the plate (25 mM HEPES pH 7.4, 100 mM KCl, 25°C); increasing amounts of MDM2 added for 45 min in 25 mM HEPES pH 7.4, 100 mM KCl, 10 mM MgCl2, 2 mM DTT, 5% glycerol, 0.05% Triton X-100, 2 mg/ml BSA; MDM2 detected with H-221 or 4B2; both purified

**Q.** How did the binding turn out when “MDM2 (from UniProt Q00987 1-491) (enzyme)” was run?
**A.** no binding
